The record followed here is doi:10.1101/2025.09.18.676998.

Results are given in words; binding and its absence hold for the method and conditions named. Binding seen in cells or lysates may run through a third protein. For part of these data: A result given as binding can be weak or reduced; the word gives no strength.

The target in experiment [1] is Ewing’s sarcoma RNA binding protein 1b (Ewsr1b) (zebrafish (endogenous in embryos)). The experiment can be described thus: proximity ligation.
In experiment [2] the target is GFP-Ewsr1b synthesized from GFP-Ewsr1b mRNA carrying Short-3′UTR (zebrafish). The experiment can be described thus: co-IP.
Experiment [3] concerns the target GFP-Ewsr1b synthesized from GFP-Ewsr1b mRNA carrying Long-3′UTR (zebrafish). In words: co-IP.

B1: Pou5f3 (protein, UniProt Q90270 1-471)
chain: MTERAQSPTAADCRPYEVNRAMYPQAAGLDGLGGASLQFAHGMLQDPSLIFNKAHFNGITPATAQTFFPFSGDFKTNDLQGGDFTQPKHWYPFAAPEFTGQVAGATAATQPANISPPIGETREQIKMPSEVKTEKDVEEYGNEENKPPSQYHLTAGTSSVPTGVNYYTPWNPNFWPGLSQITAQANISQAPPTPSASSPSLSPSPPGNGFGSPGFFSGGTAQNIPSAQAQSAPRSSGSSSGGCSDSEEETLTTEDLEQFAKELKHKRITLGFTQADVGLALGNLYGKMFSQTTICRFEALQLSFKNMCKLKPLLQRWLNEAENSENPQDMYKIERVFVDTRKRKRRTSLEGTVRSALESYFVKCPKPNTLEITHISDDLGLERDVVRVWFCNRRQKGKRLALPFDDECVEAQYYEQSPPPPPHMGGTVLPGQGYPGPAHPGGAPALYMPSLHRPDVFKNGLHPGLVGHLTS
Consider B1, for which the binding result is “binds” in experiment [1], “no binding” in experiment [2] and “binds” in experiment [3].
